In patent US20250059499A1 (THE UNIVERSITY OF BRITISH COLUMBIA, priority 2021, published 2025):

Test: peptide made by a vendor
Settings: whole synthesis, RP-HPLC, peak at 25.829 min

Ac-GQ(trt)Q(trt)Q(trt)LGGGGG-OH
purity (crude or final not stated): 83.28%
